Assay results reported in paper PMC12615793 (Nature Communications, 2025).
Results are given in words; binding and its absence hold for the method and conditions named. Some entries that bind do so weakly or less than the wild type.

By UniProt entry, the sequences of proteins in these tests, tags left out.
UniProt P9WGI1: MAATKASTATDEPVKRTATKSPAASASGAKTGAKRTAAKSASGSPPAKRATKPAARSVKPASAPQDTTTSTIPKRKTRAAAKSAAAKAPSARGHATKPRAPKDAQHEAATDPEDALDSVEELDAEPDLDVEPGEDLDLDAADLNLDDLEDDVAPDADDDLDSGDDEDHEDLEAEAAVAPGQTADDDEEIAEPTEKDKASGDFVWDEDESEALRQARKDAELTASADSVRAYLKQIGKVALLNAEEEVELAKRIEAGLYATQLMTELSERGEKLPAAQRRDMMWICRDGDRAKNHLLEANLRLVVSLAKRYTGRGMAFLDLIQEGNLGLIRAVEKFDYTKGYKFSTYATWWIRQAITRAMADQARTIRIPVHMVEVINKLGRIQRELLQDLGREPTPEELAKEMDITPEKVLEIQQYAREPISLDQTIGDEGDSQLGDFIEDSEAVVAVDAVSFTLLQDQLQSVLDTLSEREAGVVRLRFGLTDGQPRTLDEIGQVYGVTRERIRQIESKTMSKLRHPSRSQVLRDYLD
UniProt P9WHJ5: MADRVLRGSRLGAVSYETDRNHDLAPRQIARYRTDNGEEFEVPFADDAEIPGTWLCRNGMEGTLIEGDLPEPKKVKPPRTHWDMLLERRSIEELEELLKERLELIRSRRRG

Target: Mycobacterium tuberculosis σ^A (housekeeping group I σ factor) (Mycobacterium tuberculosis) (UniProt P9WGI1)
Test: co-purification (Ni2+ affinity, then SEC)

For “Mycobacterium tuberculosis RbpA (from UniProt P9WHJ5)”, the binding was “binds”.
